Experimental data as given in US20120178908A1 (Novo Nordisk, published 2012).
These are yes or no findings as the source states them, for the method shown. Some results given as binding are weak or reduced against the parent protein; the word gives no strength.

Chains of the proteins cited; added tags and fusions are not shown. Lines headed by an entry give the natural chain unless they say otherwise; changes in a name come on top.
UniProt P02671: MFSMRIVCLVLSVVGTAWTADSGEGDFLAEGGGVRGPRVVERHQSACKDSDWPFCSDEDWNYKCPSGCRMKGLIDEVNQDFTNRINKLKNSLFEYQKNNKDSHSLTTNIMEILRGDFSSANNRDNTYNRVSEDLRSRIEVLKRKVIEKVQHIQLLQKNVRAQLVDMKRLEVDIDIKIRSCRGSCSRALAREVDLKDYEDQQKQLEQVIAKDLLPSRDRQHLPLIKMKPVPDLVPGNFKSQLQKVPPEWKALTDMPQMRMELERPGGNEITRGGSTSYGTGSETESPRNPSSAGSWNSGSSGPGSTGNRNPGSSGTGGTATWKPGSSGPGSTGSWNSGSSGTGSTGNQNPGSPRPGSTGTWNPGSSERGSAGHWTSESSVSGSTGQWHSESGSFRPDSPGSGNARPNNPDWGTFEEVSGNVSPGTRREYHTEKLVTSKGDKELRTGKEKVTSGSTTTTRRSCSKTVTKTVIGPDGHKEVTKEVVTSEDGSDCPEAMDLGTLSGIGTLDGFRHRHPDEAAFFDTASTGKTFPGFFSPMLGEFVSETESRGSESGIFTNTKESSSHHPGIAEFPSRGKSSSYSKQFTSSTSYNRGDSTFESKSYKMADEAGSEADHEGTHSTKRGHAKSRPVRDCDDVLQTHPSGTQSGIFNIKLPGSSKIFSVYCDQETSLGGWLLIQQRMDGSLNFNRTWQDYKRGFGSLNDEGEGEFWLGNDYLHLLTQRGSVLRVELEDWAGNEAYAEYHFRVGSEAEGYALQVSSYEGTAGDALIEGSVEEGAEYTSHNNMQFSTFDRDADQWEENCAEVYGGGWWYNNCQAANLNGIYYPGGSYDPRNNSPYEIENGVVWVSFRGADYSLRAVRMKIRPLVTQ

Molecular target: T1, TLT1 (human TLT-1, reagent of the SPR studies, source NN) (human) (UniProt Q86YW5)
T1 sequence: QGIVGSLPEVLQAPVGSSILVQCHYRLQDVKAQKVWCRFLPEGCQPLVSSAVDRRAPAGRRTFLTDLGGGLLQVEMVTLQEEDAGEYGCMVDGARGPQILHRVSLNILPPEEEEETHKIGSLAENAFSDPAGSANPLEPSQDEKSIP
Assay: SPR (Biacore T100)

binding: binds
Substance: human fibrinogen (HCI-0150R, Haematologic Technologies) (from UniProt P02671 20-629; P02675 31-491; P02679 27-437) (ligand)
